Data as given in PubChem BioAssay AID504808 (Drosophila RNAi Screening Center, 2011)

Aim: 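Chromatin factors that keep E2F targets switched off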 (primary screen)
Cells: Drosophila S2 cells
Reagent: long dsRNA against Drosophila genes
Detection: 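Firefly luciferase driven by E2F sites, normalised to Renilla luciferase on the same minimal promoter, measured by plate reader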
Direction: E2F firefly: higher = more E2F reporter activity; Renilla normaliser: higher = more normaliser reporter signal
Rule for the call: 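a knock-down counted as active when the firefly/Renilla E2F signal rose above 50%, a threshold chosen arbitrarily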
The deposit covers about 21,000 reagents; shown is an unselected part of those that have a named target and a result. Over the whole deposit, 18 (0.084%) were called active. 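Raw counts without plate normalisation, one of two replicates; the ratio scores behind the calls were not deposited.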 Unmarked entries are inactive. The numbers tell different reagents against one gene apart. Names joined by + are all predicted targets of the reagent. The record does not give: the amount of reagent, the time to read-out.

CG3902 (GeneID 40059) → E2F firefly, rep 1 = 1.19e5; Renilla normaliser, rep 1 = 5390
CG6041 (GeneID 31527) → E2F firefly, rep 1 = 1.12e5; Renilla normaliser, rep 1 = 5392
Ass + CG31286 → E2F firefly, rep 1 = 1.33e5; Renilla normaliser, rep 1 = 5984
CG32812 (GeneID 31074) → E2F firefly, rep 1 = 79031; Renilla normaliser, rep 1 = 4365
CG13385 (GeneID 34164) → E2F firefly, rep 1 = 1.43e5; Renilla normaliser, rep 1 = 5156
Cap-D2 (GeneID 43491) → E2F firefly, rep 1 = 1753; Renilla normaliser, rep 1 = 892
Klp64D (GeneID 38611) → E2F firefly, rep 1 = 92388; Renilla normaliser, rep 1 = 3683
e (GeneID 42521) → E2F firefly, rep 1 = 67981; Renilla normaliser, rep 1 = 3557
CG10214 (GeneID 42811) → E2F firefly, rep 1 = 74991; Renilla normaliser, rep 1 = 2845
spz3 (GeneID 34077) #1 → E2F firefly, rep 1 = 1.56e5; Renilla normaliser, rep 1 = 4939
spz3 (GeneID 34077) #2 → E2F firefly, rep 1 = 1.54e5; Renilla normaliser, rep 1 = 4869
CG6567 + CG4565 → E2F firefly, rep 1 = 1.40e5; Renilla normaliser, rep 1 = 7109
CG14625 (GeneID 31066) → E2F firefly, rep 1 = 1.05e5; Renilla normaliser, rep 1 = 5281
CG9068 (GeneID 36817) → E2F firefly, rep 1 = 1.39e5; Renilla normaliser, rep 1 = 5059
CG10324 (GeneID 42028) → E2F firefly, rep 1 = 1.02e5; Renilla normaliser, rep 1 = 5325
Best4 (GeneID 39660) → E2F firefly, rep 1 = 1.79e5; Renilla normaliser, rep 1 = 9072
E(z) (GeneID 39203) → E2F firefly, rep 1 = 85047; Renilla normaliser, rep 1 = 231
vis + achi → E2F firefly, rep 1 = 150; Renilla normaliser, rep 1 = 33
cyr (GeneID 31733) #1 → E2F firefly, rep 1 = 1.12e5; Renilla normaliser, rep 1 = 5100
cyr (GeneID 31733) #2 → E2F firefly, rep 1 = 1.07e5; Renilla normaliser, rep 1 = 4991
cyr (GeneID 31733) #3 → E2F firefly, rep 1 = 1.04e5; Renilla normaliser, rep 1 = 5734
CG14104 (GeneID 50259) → E2F firefly, rep 1 = 1.21e5; Renilla normaliser, rep 1 = 6225
Bhmt (GeneID 35153) → E2F firefly, rep 1 = 1.01e5; Renilla normaliser, rep 1 = 4199
CG42818 + Ca-Ma2d → E2F firefly, rep 1 = 1.07e5; Renilla normaliser, rep 1 = 4146
Nepl7 (GeneID 34671) → E2F firefly, rep 1 = 96278; Renilla normaliser, rep 1 = 4469
CG11362 (GeneID 37574) → E2F firefly, rep 1 = 1.09e5; Renilla normaliser, rep 1 = 4426
CG11449 (GeneID 40467) → E2F firefly, rep 1 = 1.54e5; Renilla normaliser, rep 1 = 7744
Cpr11A (GeneID 32198) → E2F firefly, rep 1 = 31446; Renilla normaliser, rep 1 = 2429
PGRP-SC2 (GeneID 35862) → E2F firefly, rep 1 = 1.44e5; Renilla normaliser, rep 1 = 4614
Tmem43 (GeneID 38881) → E2F firefly, rep 1 = 82916; Renilla normaliser, rep 1 = 3614
CG13124 (GeneID 34310) → E2F firefly, rep 1 = 78595; Renilla normaliser, rep 1 = 3558
cpx (GeneID 64877) → E2F firefly, rep 1 = 84927; Renilla normaliser, rep 1 = 3588
Sec15 (GeneID 42499) → E2F firefly, rep 1 = 83635; Renilla normaliser, rep 1 = 4473
conv (GeneID 36588) → E2F firefly, rep 1 = 1.06e5; Renilla normaliser, rep 1 = 4122
CG31675 (GeneID 318879) → E2F firefly, rep 1 = 1.23e5; Renilla normaliser, rep 1 = 4378
CG9284 (retired record) (GeneID 50130) #1 → E2F firefly, rep 1 = 1.19e5; Renilla normaliser, rep 1 = 4580
CG9284 (retired record) (GeneID 50130) #2 → E2F firefly, rep 1 = 85015; Renilla normaliser, rep 1 = 3786

In a second layout: entries from further up
{"target": "cyr (GeneID 31733)", "reagent": 1, "E2F firefly, rep 1": 1.12e5, "Renilla normaliser, rep 1": 5100}
{"target": "cyr (GeneID 31733)", "reagent": 2, "E2F firefly, rep 1": 1.07e5, "Renilla normaliser, rep 1": 4991}
{"target": "cyr (GeneID 31733)", "reagent": 3, "E2F firefly, rep 1": 1.04e5, "Renilla normaliser, rep 1": 5734}
{"target": "CG14104 (GeneID 50259)", "reagent": 1, "E2F firefly, rep 1": 1.21e5, "Renilla normaliser, rep 1": 6225}
{"target": "Bhmt (GeneID 35153)", "reagent": 1, "E2F firefly, rep 1": 1.01e5, "Renilla normaliser, rep 1": 4199}
